Primary screen of a compound library

Data taken from ChEMBL document CHEMBL3988442, “University of Dundee, Small-Polar-MMV Screening Library” (2021).

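Whole-cell assay for inhibitors of Mycobacterium tuberculosis growth, labelled Cornell in the record; the read-out is not stated. The concentration is filed as 10 mM, unlikely as a test dose, so the dose is not known. The record gives no direction; compounds strong in two other growth screens of this library score well above the rest, so higher reads as stronger inhibition. About 53,000 compounds were tested under these conditions; 1.7% (about 900) showed 50% or more at least once.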

Results are given as percent effect.
The record does not define 0% and 100%; most values in the screen are far below 50% and negative numbers occur (in some assays of this library far below -100).
This is an unselected part of the compounds tested.

SMILES,Percent Effect
O=C(NC1CC(=O)N(C2Cc3ccccc3C2)C1)c1ccsc1 (stereo not drawn),-7.434%
CN(Cc1nnc(-c2ccco2)o1)C1CCCN(c2cccnn2)C1 (stereo not drawn),-28.65%
CCN(CC)C1CCN(C(=O)c2cc(-n3cccn3)ccc2Cl)CC1,-10.25%
O=C(CCCOCc1ccccc1)N1CCCC(c2ncc[nH]2)C1 (stereo not drawn),18.83%
CC(C(=O)NC1CC1)S(=O)(=O)Cc1noc(C(C)(C)C)n1 (stereo not drawn),2.395%
COC[C@H]1CCC[C@H]1Nc1ncnc2c1CCNCC2,-23.56%
O=S(=O)(CCNCc1cc(O)c2cc(F)ccc2n1)N1CCCC1,10.3%
CC(C)c1nn(C)c(N2CCOCC2)c1CN[C@H](C)CO,-7.673%
Cc1ccc(OCC(C)NC(=O)CN(C)c2ccc(C#N)cn2)cc1 (stereo not drawn),-52.97%
Cc1cc2c(C)cc(O)cc2c(=O)o1,-12.93%
CCC(C)Oc1ccccc1CN1Cc2ncccc2C1=O (stereo not drawn),39.12%
Cn1cc(C(=O)NCc2ccc(N3CCNC(=O)C3)c(F)c2)cn1,-2.934%
Cc1nc2c(N(C)Cc3ccnn3C)nc(N)nc2n1C,1.731%
CSc1ccc(-c2noc(CN(CC(C)C)CC(C)C)n2)cc1,42.06%
CCCS(=O)(=O)N1CCN(C(C)(C)CO)CC1,-13.78%
O=C(NC1CCOCC1)c1cccc(C2CCCNC2)c1 (stereo not drawn),-2.526%
COc1cccc(S(=O)(=O)N2CCOC(C)(C(N)=O)C2)c1 (stereo not drawn),8.35%
COc1cc(F)ccc1N(C)Cc1cccnc1,-28.97%
Cc1nc(CCNC(=O)NCC(O)c2cccc(Cl)c2)cs1 (stereo not drawn),-13.83%
Cc1nc(CN(C)C2CCN(CCc3cnn(C)c3)C2)no1 (stereo not drawn),-16.13%
O=C(O)C(F)(F)F.O=C(O)C(F)(F)F.c1cnc(N2CCOCC3(CCCN(CC4CCOCC4)C3)C2)nc1 (stereo not drawn),6.519%
CN1C(=O)CC(c2ccccc2)C12CCN(c1ncccn1)CC2 (stereo not drawn),-44.61%
CCNc1ncc(C(=O)NC(CCN(C)C)c2ccccc2)cn1 (stereo not drawn),-22.51%
CN(C)C(=O)C1CCCN1CCCNC(=O)c1ccccc1F (stereo not drawn),6.061%
CC(=O)N1CCC(C)(c2nc(C)no2)CC1,-17.69%
O=C(O)C(F)(F)F.[H][C@@]12COC[C@]1([H])[C@@H](OCC1CCOCC1)CN2Cc1ccoc1,-17.04%
CCC(=O)N1CCCCC1c1nc(O)c2c(n1)CN(C(=O)C1CC1)CC2 (stereo not drawn),8.462%
[H][C@@]12CCN(S(=O)(=O)c3ccccc3)C[C@]1(c1nnc(C)o1)CCO2,-37.56%
Cc1cnn(CC2CCCN2CC(=O)Nc2cc(C(C)(C)C)no2)c1 (stereo not drawn),16.98%
[H][C@]12CCC[C@@]1(CO)CN(C(=O)c1cc(C)nc3ccc(C)cc13)C2,8.507%
CCn1ncc2c1C(COC)N(C(=O)CCc1ccccc1)CC2.O=C(O)C(F)(F)F (stereo not drawn),-16.22%
CCOC(=O)c1coc(N2CCN(Cc3cccc(OC)c3)C(=O)C2)n1,23.11%
O=C(c1cc(Cl)cc(Cl)c1)N1CCN(c2nccs2)CC1,4.16%
O=C(CCn1cc(Cl)cn1)N1CCC2(CC1)[C@H](O)C[C@@H]2OCCO,9.201%
CCCS(=O)(=O)CC(=O)N1CCCC1c1noc(C2CC2)n1 (stereo not drawn),-8.511%
O=C1NCC2(CCCN(C(=O)Nc3cccc(-c4cscn4)c3)CC2)O1 (stereo not drawn),-38.69%
CCOc1ccc(Cl)c(C(=O)NCc2ccc(C(=O)NC)cc2)n1,16.02%
CC1CN(C)CCN1Cc1cccc(C(=O)NCc2ccco2)c1 (stereo not drawn),-17.35%
O=C(O)[C@@H]1CN(C(=O)CC2CCCC2)C[C@H]1c1ccc(F)cc1,35.09%
O=C(c1cccc(O)c1)N1CCN(Cc2nnc(C3CCC3)o2)CC1,-37.2%
Cc1cc(S(=O)(=O)N2CCCc3cc(F)cc(F)c32)sc1C(=O)O,7.632%
O=C(CNC1(c2ccc(Cl)cc2)CCOCC1)NC1CCCC1,28.07%
CCOc1ccccc1CC(=O)N1C[C@H](C2CC2)[C@@H](N)C1,25.79%
CNC(=O)c1ccccc1NCc1ncnn1C,13.38%
Cn1cnc2c1CCN(CC(=O)N(Cc1ccsc1)C1CC1)C2,20.97%
O=C(O)c1ccccc1-c1ccc(CN2CCC(CO)C2)cn1 (stereo not drawn),-32.91%
[H][C@@]12CN(C(=O)c3cccnc3)C[C@]1([H])[C@@H]2CC(=O)Nc1cccnc1,-15.56%
COCCN(C)C[C@@H]1CN(C(=O)c2ccc(C)cc2)C[C@@H]1CO,0.812%
CC(Cn1cccn1)n1cnc2ccc(F)cc2c1=O (stereo not drawn),-59.23%
[H][C@@]12CCC(=O)N(CCNC)[C@]1([H])CCN(c1cnc3ccccc3n1)C2,7.96%
CCCN(CC)c1ccc(C(=O)N2CCCC2c2cnn(C)c2)cn1 (stereo not drawn),9.975%
CN(Cc1nnc(C2CC2)n1C)C1CCN(Cc2ccccc2F)C1 (stereo not drawn),6.1%
CC(CCCC(C)(C)O)Nc1ccc(-c2nccn2C)nn1 (stereo not drawn),-2.022%
CCC(=O)N1CCc2nc3cc(OC)c(OC)cc3c(=O)n2CC1,0.8735%
COCC(=O)Nc1cnc(N2CCCC2)nc1,11.88%
COCC(C)NCc1ccc2[nH]c(C)c(C)c2c1 (stereo not drawn),-5.586%
[H][C@@]12CCCO[C@]1([H])[C@H](NC(=O)CC1CC1)CN(C(=O)c1cccs1)C2,7.041%
Cc1cc(C)nc(N2CCOC(c3cc(CCO)[nH]n3)C2)n1 (stereo not drawn),-12.57%
CNC(=O)CCc1cccc(C2CCCN(c3cc(C)ncn3)C2)n1 (stereo not drawn),25.72%
CN(C)C(=O)N1CCN(C(=O)c2ccccc2)CC2(CNC(=O)C2)C1 (stereo not drawn),-11.63%
CCC(C#N)NC(=O)c1cc(Br)c2c(c1)OCCO2 (stereo not drawn),-8.666%
O=C(O)C(F)(F)F.[H][C@@]12CCN(Cc3ccco3)[C@@]1([H])CCC(=O)N2,-10.84%
CC(C)c1noc(C(C)N2CCN(CCN3CCCC3=O)CC2)n1 (stereo not drawn),11.4%
COCCNC(=O)C1(CCCc2cccnc2)CCCN1C (stereo not drawn),-21.51%
Cc1nn(C)c(N2CCOCC2)c1CNC(C)c1cccs1 (stereo not drawn),5.347%
CN(Cc1cccc2ncccc12)C(=O)CCn1ccc(=O)[nH]c1=O,-21.25%
N#Cc1cccc(NC2CC(=O)N(Cc3cccc(F)c3)C2)n1 (stereo not drawn),-6.448%
CCCc1nc(C)c(C(=O)NC2CCN(c3ncccn3)CC2)s1,-0.2795%
CC(C)N1CCOC[C@H]1c1nc(C(C)(C)C)c[nH]1,21.5%
[H][C@@]12OCCN(C(=O)CC3=CCCCC3)[C@@]1([H])CC[C@H]2OCC,15.39%
Cc1oc(-c2ccco2)nc1CC(=O)N1CCC(CCO)C1 (stereo not drawn),-45.27%
O=C(O)C(F)(F)F.c1coc(CN2CCn3c(COCC4CC4)nnc3C2)c1,-13.56%
Cc1cc(CN2CCC(C3Nc4ccccc4S(=O)(=O)N3)CC2)oc1C (stereo not drawn),-2.233%
Cc1ncsc1CCCNC(=O)C1CC2(CCNCC2)CN1C (stereo not drawn),-11.99%
Cc1nc(C2CCCN2Cc2ccc(S(=O)(=O)N(C)C)o2)no1 (stereo not drawn),10.9%
CC(C)(C)c1ncc2c(n1)CN(C(=O)c1ccc(-c3nc[nH]n3)cc1)C2,34.41%
CCC(=O)NCC(=O)NCC1(O)CCC(C(C)(C)C)CC1 (stereo not drawn),4.027%
CCc1nc(C)c(-c2nccn2CC2CCCCO2)[nH]1 (stereo not drawn),-10.28%
[H][C@@]12CNC(=O)N1CCN(Cc1cccc(OC)n1)C2,-6.302%
Cc1ncncc1-c1ccnc(NC(C)C)n1,5.652%
CC(CNC(=O)Nc1ccc(F)cc1Br)N1CCOCC1 (stereo not drawn),-21.79%
[H][C@]12CC[C@]([H])(CN(c3ncccn3)C1)N(C(=O)Cn1ccnc1CC)C2,-66.96%
Cc1ccc(NCc2ccccc2C#N)cc1-n1cnnn1,14.41%
CN(CC(=O)N1CCCC1c1noc(C2CC2)n1)Cc1ccccc1 (stereo not drawn),11.19%
O=C(O)C(F)(F)F.[H][C@@]12CN(C(=O)c3ccsc3)C[C@]1([H])OCCN2C(C)C,18.49%
CC(C)(C)OC(=O)NCCNC(=O)c1ccc2cc[nH]c2c1,21.94%
CC(C)CC(=O)N1CCCC1c1ccsc1 (stereo not drawn),-0.04832%

6 of the entries, repeated:

{"smiles": "CC1CN(C)CCN1Cc1cccc(C(=O)NCc2ccco2)c1", "stereo": "stereo not drawn", "Percent Effect": -17.35}
{"smiles": "[H][C@]12CCC[C@@]1(CO)CN(C(=O)c1cc(C)nc3ccc(C)cc13)C2", "Percent Effect": 8.507}
{"smiles": "CCCN(CC)c1ccc(C(=O)N2CCCC2c2cnn(C)c2)cn1", "stereo": "stereo not drawn", "Percent Effect": 9.975}
{"smiles": "CCOc1ccccc1CC(=O)N1C[C@H](C2CC2)[C@@H](N)C1", "Percent Effect": 25.79}
{"smiles": "CNC(=O)CCc1cccc(C2CCCN(c3cc(C)ncn3)C2)n1", "stereo": "stereo not drawn", "Percent Effect": 25.72}
{"smiles": "O=C(O)C(F)(F)F.[H][C@@]12COC[C@]1([H])[C@@H](OCC1CCOCC1)CN2Cc1ccoc1", "Percent Effect": -17.04}